This list holds what a sample rich in targets with a hit left over. The data scatter; read single values as rough. The entries are a selection whose mix differs from that of the whole data set.
Each target was assayed with COC(=O)/C=C/c1ccccc1 [methyl cinnamate] (assay: log2 ratio of iodoacetamide-alkyne labeling of the cysteine site, DMSO over compound (competition); higher = stronger covalent engagement of the cysteine by the compound, active = 1 or more). Settings: 500 µM; treatment time 1 h; system: HEK293T cell lysate.
Summary of the method: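 Electrophile (500 µM) or vehicle was added to HEK293T lysate (2 mg/mL) for 1 h at ambient temperature before iodoacetamide alkyne labelling (1 h) and click coupling to sCIP-TMT reagents. After pooling, overnight trypsin digestion at 37 °C, streptavidin enrichment and acid elution, peptides were measured by Orbitrap Eclipse LC-MS/MS with FAIMS and quantified in FragPipe. Each cysteine's log2 competition ratio compares mean control-channel with mean compound-channel reporter intensity, control over compound. Data came from duplicate channels across three replicates, excluding cysteines quantified in only one replicate.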

log2 ratio of iodoacetamide-alkyne labeling, inactive:
FHL3 C7 (UniProt Q13643) 0.0109
DCTN1 C791 (UniProt Q14203) 0.178
CUL3 C636 (UniProt Q13618) 0.306
SQSTM1 C26 (UniProt Q13501) 0.151
NCAPH C239 (UniProt Q15003) 0.179
CKAP5 C1019 (UniProt Q14008) 0.0818
RAPGEF1 C817 (UniProt Q13905) 0.135
GAPVD1 C568 (UniProt Q14C86) 0.202
PDCD11 C151 (UniProt Q14690) 0.264
UniProt Q13885_C211 0.371
UniProt Q14444_C226 0.101
NAE1 C384 (UniProt Q13564) 0.0783
CKAP5 C1946 (UniProt Q14008) 0.43
NUMA1 C299 (UniProt Q14980) 0.0666
CKAP5 C592 (UniProt Q14008) 0.173
FHL1 C185 (UniProt Q13642) -0.145
CKAP5 C1795 (UniProt Q14008) -0.102
CAMK2G C453 (UniProt Q13555) -0.0374
SCRIB C22 (UniProt Q14160) 0.227
ITPR3 C1638 (UniProt Q14573) 0.188
AAMP C428 (UniProt Q13685) 0.432
FLNC C1109 (UniProt Q14315) -0.162
GAPVD1 C374 (UniProt Q14C86) -0.157
NCAPH C714 (UniProt Q15003) 0.255
EIF4EBP2 C35 (UniProt Q13542) 0.209
FHL3 C153 (UniProt Q13643) 0.0596
DYNC1H1 C4510 (UniProt Q14204) 0.103
CUL2 C721 (UniProt Q13617) -0.171
DIP2A C6 (UniProt Q14689) 0.25
UniProt Q14004_C701 0.12
SPTAN1 C315 (UniProt Q13813) 0.131
SMC1A C781 (UniProt Q14683) 0.134
DIP2A C252 (UniProt Q14689) 0.305
FHL1 C31 (UniProt Q13642) 0.129
DYNC1H1 C4216 (UniProt Q14204) 0.182
GOLGB1 C1285 (UniProt Q14789) -0.247
UBE4A C989 (UniProt Q14139) 0.23
FHL3 C10 (UniProt Q13643) 0.0675

2 records picked at random from the list so far, as already listed:
log2 ratio of iodoacetamide-alkyne labeling, inactive:
FHL3 C10 (UniProt Q13643) 0.0675
CKAP5 C1946 (UniProt Q14008) 0.43

Reference: the supplement of paper PMC11006884
